Results are given in words; binding and its absence hold for the method and conditions named. For some assays here: In cells and extracts the contact can be indirect. Some entries that bind do so weakly or less than the wild type.
How the values were obtained:
[1] = biological target: histone deacetylase 3 (human (endogenous in HeLa)) (UniProt O15379); assay: SEC; soluble chromatin (legend: nuclear lysates) from HeLa cells on Superose 6 10/300 GL; 0.5 ml fractions, trichloroacetic acid precipitated, western blot
[2] = biological target: histone deacetylase 3 (human (endogenous in HeLa)) (UniProt O15379); assay: co-IP; endogenous HDAC3 and RbAp48 from HeLa cells; two different HDAC3 antibodies (A, B); rabbit IgG as negative control

Amino acid sequences for entries named in this document (tags omitted).
UniProt O15379: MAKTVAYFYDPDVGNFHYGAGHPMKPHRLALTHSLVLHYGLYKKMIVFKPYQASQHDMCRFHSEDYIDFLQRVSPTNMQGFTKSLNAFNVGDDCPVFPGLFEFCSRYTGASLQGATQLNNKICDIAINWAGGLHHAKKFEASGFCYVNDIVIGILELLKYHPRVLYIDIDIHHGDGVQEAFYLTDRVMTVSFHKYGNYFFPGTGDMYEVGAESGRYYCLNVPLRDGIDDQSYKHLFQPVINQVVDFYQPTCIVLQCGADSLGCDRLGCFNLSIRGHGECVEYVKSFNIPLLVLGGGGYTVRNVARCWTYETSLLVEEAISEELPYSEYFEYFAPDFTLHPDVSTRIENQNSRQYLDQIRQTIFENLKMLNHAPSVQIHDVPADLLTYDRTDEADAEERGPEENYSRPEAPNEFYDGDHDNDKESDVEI
UniProt P12004: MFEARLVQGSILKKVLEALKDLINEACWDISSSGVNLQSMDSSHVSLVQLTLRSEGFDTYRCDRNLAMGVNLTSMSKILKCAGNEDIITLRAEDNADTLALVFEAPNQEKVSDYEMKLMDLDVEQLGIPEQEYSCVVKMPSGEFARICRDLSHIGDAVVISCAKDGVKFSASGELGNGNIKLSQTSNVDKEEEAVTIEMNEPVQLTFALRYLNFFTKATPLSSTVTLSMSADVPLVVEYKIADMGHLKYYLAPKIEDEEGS
UniProt Q09028: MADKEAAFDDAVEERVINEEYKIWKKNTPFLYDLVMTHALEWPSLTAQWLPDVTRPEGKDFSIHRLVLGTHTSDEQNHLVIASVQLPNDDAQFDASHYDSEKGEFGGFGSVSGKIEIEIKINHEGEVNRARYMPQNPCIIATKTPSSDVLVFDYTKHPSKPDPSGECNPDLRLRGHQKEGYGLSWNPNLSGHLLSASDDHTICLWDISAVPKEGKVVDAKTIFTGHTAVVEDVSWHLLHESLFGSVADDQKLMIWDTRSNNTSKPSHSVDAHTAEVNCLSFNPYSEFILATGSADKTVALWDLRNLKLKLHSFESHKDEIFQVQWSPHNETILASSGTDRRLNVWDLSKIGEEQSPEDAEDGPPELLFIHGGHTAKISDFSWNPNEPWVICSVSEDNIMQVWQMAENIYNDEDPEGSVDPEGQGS

Row | Substance | binding [1] | binding [2]
1 | PCNA (from UniProt P12004 1-261) | no binding | 
2 | RbAp48 (from UniProt Q09028 1-425) |  | binds

— paper PMC3718806, “Inhibition of Histone Deacetylase 3 Causes Replication Stress in Cutaneous T Cell Lymphoma” (PLoS ONE, 2013)
